Over roughly 33,000 sequences, “E-score (-0.5 to 0.5)” has its median near -0.016; the highest 2% begin near 0.3. The list shows a part of the results.
What follows are sequences tested against T1, Yer184c (UniProt P39961) (assay: PBM E-score (8-mer binding enrichment) (E-score (-0.5 to 0.5)); higher = stronger / more preferred TF binding). Conditions: protein concentration: 100 nM; construct: GST-full length.
T1 sequence: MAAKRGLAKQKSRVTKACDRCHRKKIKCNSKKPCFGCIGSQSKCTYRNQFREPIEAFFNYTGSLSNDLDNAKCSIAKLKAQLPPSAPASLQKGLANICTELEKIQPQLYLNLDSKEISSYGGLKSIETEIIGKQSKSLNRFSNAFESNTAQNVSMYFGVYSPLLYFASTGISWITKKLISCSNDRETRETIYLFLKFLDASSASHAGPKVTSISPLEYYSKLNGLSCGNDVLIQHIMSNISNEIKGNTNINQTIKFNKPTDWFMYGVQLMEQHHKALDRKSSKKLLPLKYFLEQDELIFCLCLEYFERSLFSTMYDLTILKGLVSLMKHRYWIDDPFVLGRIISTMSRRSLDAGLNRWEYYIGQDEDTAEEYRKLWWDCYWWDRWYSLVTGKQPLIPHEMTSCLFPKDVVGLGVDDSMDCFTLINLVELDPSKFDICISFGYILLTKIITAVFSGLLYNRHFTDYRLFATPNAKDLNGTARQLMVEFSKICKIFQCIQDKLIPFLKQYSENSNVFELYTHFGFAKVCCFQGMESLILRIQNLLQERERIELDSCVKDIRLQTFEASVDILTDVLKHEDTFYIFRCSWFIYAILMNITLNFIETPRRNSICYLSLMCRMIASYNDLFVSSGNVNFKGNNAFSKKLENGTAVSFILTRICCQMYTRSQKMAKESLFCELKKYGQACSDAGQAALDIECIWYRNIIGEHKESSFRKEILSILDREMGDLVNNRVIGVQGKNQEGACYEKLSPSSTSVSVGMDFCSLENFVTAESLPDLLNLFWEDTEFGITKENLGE
In short: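 For each ungapped eight-base word taken together with its reverse complement, the Universal PBM Analysis Suite assigned an E-score. Binding data came from GST-tagged yeast transcription factors, applied at about 100-200 nM, on universal all-10-mer Agilent arrays made double-stranded by primer extension. Fluorescent anti-GST marked bound protein, and scans were normalised with masliner.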

Sequence | PBM E-score
CGGCGCAG | 0.129
AGTACCAC | -0.188
ACCCTCAT | -0.25
AACGAGTG | -0.0309
TAACAGGA | 0.0488
ATACTCCG | 0.321
CGAAATGC | 0.0794
GCCGATAC | 0.13
CACGCATC | 0.0612
AGGAATGA | 0.0599
GTGCGACA | -0.0806
AGTTAGTC | -0.0517
ACGCAAGT | -0.0717
CGTGGGCA | -0.291
CGTATCGA | -0.123
AACATTGA | 0.101
CCACTCGA | -0.00486
CGTGAGAA | 0.0698
CGCGGGAC | 0.127
CATGGCAC | -0.0107
CACTTCCG | 0.137
AGTTAGGA | 0.0742
GGCTAGTA | 0.108
ACTTCCCG | 0.148
ACCCTCGT | -0.116

A run of entries taken from the entries so far, as a working copy:
Sequence | PBM E-score
AACATTGA | 0.101
CCACTCGA | -0.00486
CGTGAGAA | 0.0698
CGCGGGAC | 0.127
CATGGCAC | -0.0107
CACTTCCG | 0.137
AGTTAGGA | 0.0742

Single values from the entries so far:
Entry for CGTATCGA under PBM E-score: -0.123
Entry for CCACTCGA under PBM E-score: -0.00486
Entry for CGTGGGCA under PBM E-score: -0.291

Next part:

Sequence | PBM E-score
AATTGCGC | 0.16
CATGGTAA | -0.113
ACGTATAC | -0.0033
CTTTCCAC | -0.06
ATACCGCG | 0.105
ATTTATTG | -0.0214
GTTGGACA | -0.0236
ATAGAAAG | -0.0692
GAGCGCTC | 0.00754
TACTATGA | 0.142
AGTCGGAC | 0.0344
CTGCCGCC | -0.0785
GTTGCCTA | -0.0964
GACCATCA | -0.0725
CAAGTTGA | -0.0734
AAAGTTAA | 0.0874
AAGTAAGT | 0.0312
AACGGCAG | 0.147
ACTTATAC | 0.0816
ATTGTGTC | 0.0892
GATCTCGC | -0.0742
CAATTCTC | 0.0231
GGAGTTTA | 0.127
AACGTTCC | 0.013
CTTGAGAA | -0.116

Sequence | PBM E-score
ATTTCGTA | -0.0477
AACTTCTC | 0.0331
CCGATTTC | 0.14
CCCCGCCC | 0.169
ATACCAAA | 0.11
ATGCACTC | -0.245
ACAGATAG | -0.00985
GCTGGGTA | -0.192
AACAGTAT | 0.0786
CCATTGAG | -0.0263
ACTTATGG | -0.141
ACCGGGCT | 0.145
AGATACAC | -0.0908
ACTAATTA | 0.183
GCCGATCA | 0.226
GATTCGAA | 0.189
CACCATCC | -0.292
CATCACAC | -0.0415
AGATTGCT | -0.176
AAATCAGC | 0.0662
GAACAATC | 0.172
CATGCAGG | -0.244
CTTCGCCC | -0.289
GTTGAATA | 0.125
AGTGATGC | 0.00056

Sequence | PBM E-score
CCAACCGG | 0.215
AGTTCCTC | -0.0432
TGGACCAA | -0.0558
ATAGACAC | 0.0707
CCCATAAG | -0.262
AGCCTCCT | -0.163
ACCCTAGG | -0.0568
AATGGCTA | -0.0331
GGGTATGA | -0.0312
CCAAAAGA | 0.204
AGGCGAGC | -0.186
GTTAGCAA | 0.0352
CACCGACG | 0.182
AAATGAGC | 0.038
ATATCCAC | 0.0617
CGTACCTC | -0.136
ATTCGGCG | 0.282
AGGCGTAT | -0.0405
CAACGCAA | 0.143
GGCGAACA | 0.0503
ACATGGGG | -0.216
CGTCGTCC | -0.0115
CCCGGCGG | 0.224
GCTAACAC | 0.00951
GTCCGGCA | 0.285

Sequence | PBM E-score
ACGTTTTC | 0.131
GTCTGAAC | -0.0367
AAGAATTC | 0.108
AAGGCGAA | -0.0849
ATTAAAAA | 0.323
AGGCAACC | -0.0513
AACCAGGC | 0.0262
TCGTGAGA | 0.0625
CTCGCACC | -0.0508
AAAGGCGC | -0.0168
TCAAGTCA | 0.00563
AAGAAGTA | 0.0582
AAGATACA | 0.0723
ATATGGGG | -0.278
CACCAAGC | -0.224
AGAGAGCG | -0.162
GGTCTGTA | 0.0177
ATGGGGGC | -0.36
CAGTCCCC | -0.406
ACTAGACG | -0.0203
CACAAATG | -0.0328
GTACGGCA | 0.0888
GCGGACCC | 0.11
CAACGGAA | 0.36
ATATGAAC | 0.0621

Sequence | PBM E-score
CCAGTGAC | -0.282
ACCGGCAT | 0.293
GTCACGGA | 0.172
CAGATTGG | -0.188
CTTCACTA | 0.0629
ACGCTAGA | -0.249
ACCGAGGA | 0.0869
TAGTGCCA | -0.137
TAGTAAAA | 0.224
ATCAAGTA | -0.133
CCATACGA | -0.065
ACAATCTG | -0.0833
AGTATGTA | -0.00556
ACACCGGC | 0.27
CGACTGTA | -0.2
TATCCTAA | 0.123
AAGCAGTC | -0.115
GTCAATGA | -0.177
AAAGACTT | -0.0513
CTGAGATA | 0.0957
ACTGAGCT | -0.143
CAAGGCGC | -0.041
AAAATGCG | 0.148
GGGTGCAA | 0.0462
TAAAGATA | 0.188

Sequence | PBM E-score
GGGAAAGA | -0.111
TATTCTGA | -0.118
CTATGGAG | -0.354
AAGTTTAC | 0.121
GCTTGAGA | -0.153
AGTACGGC | 0.0572
ATAGTTTA | 0.0274
CTAGACGA | -0.117
ACACCGGG | 0.13
AGACTGGG | -0.186
CCAGCTCC | -0.149
GAATTGCA | -0.0409
ATACCTAC | -0.0307
GATGACCC | -0.142
ACTCGAAC | -0.0196
AGACTGCG | -0.191
AGGAACTA | -0.103
ATGCCAGG | -0.0572
ATAGGAAG | -0.0518
CGTGATCA | 0.0205
AATCGTTA | 0.0153
TCCACGGA | 0.304

From the supplement of paper PMC3334620
